These are yes or no findings as the source states them, for the method shown. For part of these data: Binding seen in cells or lysates may run through a third protein. Some entries that bind do so weakly or less than the wild type. For part of these data: Tags and fused reporters may be left off the sequences shown.

5 molecules from article PMC8114533 can be followed below.

The target in assay [1] is T1, Flag-tagged MYLK4 (myosin light chain kinase family member 4) in 143B cells (human) (UniProt Q86YV6).
T1 sequence: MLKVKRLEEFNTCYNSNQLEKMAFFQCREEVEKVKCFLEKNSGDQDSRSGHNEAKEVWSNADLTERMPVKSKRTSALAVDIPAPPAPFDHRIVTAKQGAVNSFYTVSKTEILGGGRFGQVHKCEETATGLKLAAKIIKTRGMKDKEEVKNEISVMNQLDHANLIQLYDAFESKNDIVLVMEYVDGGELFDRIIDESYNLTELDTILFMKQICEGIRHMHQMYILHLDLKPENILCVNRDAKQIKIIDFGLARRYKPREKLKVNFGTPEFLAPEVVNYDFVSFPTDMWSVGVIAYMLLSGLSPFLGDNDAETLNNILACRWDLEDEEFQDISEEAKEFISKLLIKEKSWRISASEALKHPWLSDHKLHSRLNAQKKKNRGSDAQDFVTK
The assay can be described thus: co-IP; 143B cells stably expressing MYLK4-FLAG; NP40 lysate, 1 μg antibody or IgG per 500 μg total protein, Protein G beads overnight at 4 °C; immunoblot. (In general: A western blot detects proteins with antibodies after separation by electrophoresis.)

In assay [2] the target is T2, Myosin light chain kinase family member 4 (MYLK4), endogenous in 143B cells (human (endogenous in 143B)) (UniProt Q86YV6).
T2 sequence: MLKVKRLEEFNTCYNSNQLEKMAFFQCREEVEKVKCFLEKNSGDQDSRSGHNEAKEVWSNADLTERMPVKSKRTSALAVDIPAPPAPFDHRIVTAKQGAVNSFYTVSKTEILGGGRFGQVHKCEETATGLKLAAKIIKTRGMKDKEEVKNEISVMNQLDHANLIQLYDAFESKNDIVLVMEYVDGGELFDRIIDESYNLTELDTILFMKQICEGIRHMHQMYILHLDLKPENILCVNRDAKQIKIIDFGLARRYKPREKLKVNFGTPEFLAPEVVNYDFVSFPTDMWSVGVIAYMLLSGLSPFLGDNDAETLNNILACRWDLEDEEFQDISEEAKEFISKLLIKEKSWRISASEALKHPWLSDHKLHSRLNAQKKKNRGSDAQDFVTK
Briefly: co-IP; endogenous proteins in 143B cells, reciprocal; NP40 lysate, 1 μg antibody or IgG per 500 μg total protein, Protein G beads overnight at 4 °C; immunoblot.

Assay [3] has as its target T3, Flag-tagged MYLK4 in HEK-293T cells (human) (UniProt Q86YV6).
T3 sequence: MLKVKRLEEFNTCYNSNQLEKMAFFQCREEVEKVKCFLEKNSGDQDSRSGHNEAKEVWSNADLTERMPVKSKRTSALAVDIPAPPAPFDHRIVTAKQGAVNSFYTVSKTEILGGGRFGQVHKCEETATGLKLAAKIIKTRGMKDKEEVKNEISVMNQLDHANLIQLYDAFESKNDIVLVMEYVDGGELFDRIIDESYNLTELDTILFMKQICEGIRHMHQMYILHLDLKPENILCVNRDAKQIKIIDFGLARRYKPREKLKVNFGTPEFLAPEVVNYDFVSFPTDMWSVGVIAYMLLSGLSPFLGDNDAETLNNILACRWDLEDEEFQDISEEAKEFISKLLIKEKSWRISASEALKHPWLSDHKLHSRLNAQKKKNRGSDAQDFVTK
The assay can be described thus: co-IP; HEK-293T cells cotransfected with Flag-tagged MYLK4 and HIS-tagged EGFR, reciprocal; NP40 lysate, Protein G beads overnight at 4 °C; immunoblot.

Assay [4] deals with Epidermal growth factor receptor (EGFR), endogenous in 143B cells (human (endogenous in 143B)) (UniProt P00533). Briefly: co-IP; endogenous proteins in 143B cells, reciprocal; NP40 lysate, 1 μg antibody or IgG per 500 μg total protein, Protein G beads overnight at 4 °C; immunoblot.
Assay [5] concerns the target HIS-tagged EGFR in HEK-293T cells (human) (UniProt P00533). The assay can be described thus: co-IP; HEK-293T cells cotransfected with Flag-tagged MYLK4 and HIS-tagged EGFR, reciprocal; NP40 lysate, Protein G beads overnight at 4 °C; immunoblot.
Assay [6] has as its target His-EGFR (668-1210) (human) (UniProt P00533). The assay can be described thus: pull-down; His-tag pull-down: 10 μg His-EGFR (668-1210) mixed with 10 μg GST-MYLK4 or GST, incubated with Ni-NTA agarose; western blot with anti-GST and anti-His tag; both purified.

For the molecule “Epidermal growth factor receptor (EGFR), endogenous in 143B cells (from UniProt P00533 25-1210)”, the binding result in assay [1] and in assay [2] was “binds” each time.

For “HIS-tagged EGFR in HEK-293T cells (from UniProt P00533 25-1210) (receptor)”, the binding result in assay [3] is recorded as “binds”.

B1: Myosin light chain kinase family member 4 (MYLK4), endogenous in 143B cells (enzyme, UniProt Q86YV6 1-388)
chain: MLKVKRLEEFNTCYNSNQLEKMAFFQCREEVEKVKCFLEKNSGDQDSRSGHNEAKEVWSNADLTERMPVKSKRTSALAVDIPAPPAPFDHRIVTAKQGAVNSFYTVSKTEILGGGRFGQVHKCEETATGLKLAAKIIKTRGMKDKEEVKNEISVMNQLDHANLIQLYDAFESKNDIVLVMEYVDGGELFDRIIDESYNLTELDTILFMKQICEGIRHMHQMYILHLDLKPENILCVNRDAKQIKIIDFGLARRYKPREKLKVNFGTPEFLAPEVVNYDFVSFPTDMWSVGVIAYMLLSGLSPFLGDNDAETLNNILACRWDLEDEEFQDISEEAKEFISKLLIKEKSWRISASEALKHPWLSDHKLHSRLNAQKKKNRGSDAQDFVTK
As for B1, in assay [4], the binding result is “binds”.

B2: Flag-tagged MYLK4 in HEK-293T cells (enzyme, UniProt Q86YV6 1-388)
chain: MLKVKRLEEFNTCYNSNQLEKMAFFQCREEVEKVKCFLEKNSGDQDSRSGHNEAKEVWSNADLTERMPVKSKRTSALAVDIPAPPAPFDHRIVTAKQGAVNSFYTVSKTEILGGGRFGQVHKCEETATGLKLAAKIIKTRGMKDKEEVKNEISVMNQLDHANLIQLYDAFESKNDIVLVMEYVDGGELFDRIIDESYNLTELDTILFMKQICEGIRHMHQMYILHLDLKPENILCVNRDAKQIKIIDFGLARRYKPREKLKVNFGTPEFLAPEVVNYDFVSFPTDMWSVGVIAYMLLSGLSPFLGDNDAETLNNILACRWDLEDEEFQDISEEAKEFISKLLIKEKSWRISASEALKHPWLSDHKLHSRLNAQKKKNRGSDAQDFVTK
Turning to B2, the binding entry in assay [5] is recorded as “binds”.

B3: GST-MYLK4 (enzyme, UniProt Q86YV6 1-388)
chain: MLKVKRLEEFNTCYNSNQLEKMAFFQCREEVEKVKCFLEKNSGDQDSRSGHNEAKEVWSNADLTERMPVKSKRTSALAVDIPAPPAPFDHRIVTAKQGAVNSFYTVSKTEILGGGRFGQVHKCEETATGLKLAAKIIKTRGMKDKEEVKNEISVMNQLDHANLIQLYDAFESKNDIVLVMEYVDGGELFDRIIDESYNLTELDTILFMKQICEGIRHMHQMYILHLDLKPENILCVNRDAKQIKIIDFGLARRYKPREKLKVNFGTPEFLAPEVVNYDFVSFPTDMWSVGVIAYMLLSGLSPFLGDNDAETLNNILACRWDLEDEEFQDISEEAKEFISKLLIKEKSWRISASEALKHPWLSDHKLHSRLNAQKKKNRGSDAQDFVTK
Consider B3, for which, in assay [6], the binding entry is “binds”.
